These are literature values, as cited in patent US20010016593A1, “Element giving rapid release of nicotine for transmucosal administration” (priority 1999, published 2001).

Read-outs that look alike come from different tables or passages of the source.

For the data set the following is noted: scale 0 to 4, cited from earlier work.

For `CN1CCCC1c1cccnc1` (centres unmarked) [nicotine], the average liking rating (intravenous injection of 1.5 mg) is on record as 0.8 and the average liking rating (intravenous injection of 3 mg) is listed as 2.6.
